Results are given in words; binding and its absence hold for the method and conditions named.

The target of the assay is T1, zipper motif^mut (hnRNP A1 aa 259–264, D262V) (human).
T1 chain: SYNVFG
Nature of the assay: thioflavin T fluorescence (fibrillation assay); self-association of the peptide into cross-beta fibrils; 40 µM peptide, 13 µM ThT, 0.5 mM DTT, 40 mM HEPES-KOH pH 7.4, 150 mM KCl or NaCl (methods), room temperature (RGG-PLD^mut-NLS also at 37 °C), at least 3 h; both purified. The settings on record: remark: other sources report otherwise.

B1: zipper motif^mut (hnRNP A1 aa 259–264, D262V) (peptide)
peptide: SYNVFG
As to B1, the binding entry is on record as “no binding (tested: 40 µM peptide)”.
